# Measurements: the supplement of paper PMC8728848
# Some of the results follow.
# B1: SAOUHSC 02783 (Staphylococcus aureus), Q5HD69 (protein)
# chain: MIHSKKLTLGICLVLLIILIVGYVIMTKTNGRNAQIKDTFNQTLKLYPTKNLDDFYDKEGFRDQEFKKGDKGTWIVNSEMVIEPKGKDMETRGMVLYINRNTRTTKGYYFISEMTDDSNGRPKDDEKRYPVKMEHNKIIPTKPLPNDKLKKEIENFKFFVQYGNFKDINDYKDGDISYNPNVPSYSAKYQLNNDDYNVQQLRKRYDIPTKQAPKLLLKGDGDLKGSSVGSRSLEFTFVENKEENIYFTDSVQYTPSEDTRYESN
# How the values were obtained:
# Assay in all cases: glycan array binding signal (z-score within array); higher = stronger binding
# Conditions in all cases: glycan notation: IUPAC condensed, linker removed
# [1] = target: Fuc(a1-3)GlcNAc
# In short: (§1)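 Glycan array binding is given as a within-array Z-score, which can be read as non-binding when negative. The arrays, 3228 of them, came from the Consortium for Functional Glycomics database and were retained only where the protein sequence was available. Z-scores were averaged across arrays of the same protein sequence at different concentrations or buffers and across linkers.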
# [2] = target: Fuc(a1-3)[Gal(b1-4)]Glc6S
# In short: as §1
# [3] = target: Fuc(a1-3)[Gal(b1-4)]GlcNAc
# In short: as §1
# [4] = target: Fuc(a1-3)[Gal(b1-4)]GlcNAc(b1-2)Man
# In short: as §1
# [5] = target: Fuc(a1-3)[Gal(b1-4)]GlcNAc(b1-2)Man(a1-3)[Fuc(a1-3)[Gal(b1-4)]GlcNAc(b1-2)Man(a1-6)]Man(b1-4)GlcNAc(b1-4)GlcNAc
# In short: as §1
# [6] = target: Fuc(a1-3)[Gal(b1-4)]GlcNAc(b1-2)Man(a1-3)[Fuc(a1-3)[Gal(b1-4)]GlcNAc(b1-2)Man(a1-6)]Man(b1-4)GlcNAc(b1-4)[Fuc(a1-6)]GlcNAc
# In short: as §1
# [7] = target: Fuc(a1-3)[Gal(b1-4)]GlcNAc(b1-3)Gal(b1-3)[Fuc(a1-4)]GlcNAc
# In short: as §1
# [8] = target: Fuc(a1-3)[Gal(b1-4)]GlcNAc(b1-3)Gal(b1-4)[Fuc(a1-3)]GlcNAc
# In short: as §1
# [9] = target: Fuc(a1-3)[Gal(b1-4)]GlcNAc(b1-3)Gal(b1-4)[Fuc(a1-3)]GlcNAc(b1-3)Gal(b1-4)[Fuc(a1-3)]GlcNAc
# In short: as §1
# [10] = target: Fuc(a1-3)[Gal(b1-4)]GlcNAc(b1-3)GalNAc
# In short: as §1
# [11] = target: Fuc(a1-3)[Gal(b1-4)]GlcNAc(b1-6)GalNAc
# In short: as §1
# [12] = target: Fuc(a1-3)[Gal(b1-4)]GlcNAc(b1-6)[Gal(b1-3)GlcNAc(b1-3)]Gal(b1-4)Glc
# In short: as §1
# [13] = target: Fuc(a1-3)[Gal(b1-4)]GlcNAc6S
# In short: as §1
# [14] = target: Fuc(a1-3)[Gal3S(b1-4)]Glc
# In short: as §1
# [15] = target: Fuc(a1-3)[Gal3S(b1-4)]GlcNAc
# In short: as §1
# [16] = target: Fuc(a1-3)[Gal3S(b1-4)]GlcNAc6S
# In short: as §1
# [17] = target: Fuc(a1-3)[GalNAc(b1-4)]GlcNAc
# In short: as §1
# [18] = target: Fuc(a1-3)[GalNAc(b1-4)]GlcNAc6S
# In short: as §1
# [19] = target: Fuc(a1-4)GlcNAc
# In short: as §1
# [20] = target: Fuc(b1-3)GlcNAc
# In short: as §1
# [21] = target: Gal(a1-2)Gal
# In short: as §1
# [22] = target: Gal(a1-3)Gal
# In short: as §1
# [23] = target: Gal(a1-3)Gal(b1-3)GlcNAc
# In short: as §1
# [24] = target: Gal(a1-3)Gal(b1-3)GlcNAc(b1-2)Man
# In short: as §1
# [25] = target: Gal(a1-3)Gal(b1-3)GlcNAc(b1-2)Man(a1-3)[Gal(a1-3)Gal(b1-3)GlcNAc(b1-2)Man(a1-6)]Man(b1-4)GlcNAc(b1-4)GlcNAc
# In short: as §1
# [26] = target: Gal(a1-3)Gal(b1-3)GlcNAc(b1-3)GalNAc
# In short: as §1
# [27] = target: Gal(a1-3)Gal(b1-3)GlcNAc(b1-6)GalNAc
# In short: as §1
# [28] = target: Gal(a1-3)Gal(b1-3)[Fuc(a1-4)]GlcNAc(b1-2)Man(a1-3)[Gal(a1-3)Gal(b1-3)[Fuc(a1-4)]GlcNAc(b1-2)Man(a1-6)]Man(b1-4)GlcNAc(b1-4)GlcNAc
# In short: as §1
# [29] = target: Gal(a1-3)Gal(b1-4)Glc
# In short: as §1
# [30] = target: Gal(a1-3)Gal(b1-4)GlcNAc
# In short: as §1
# [31] = target: Gal(a1-3)Gal(b1-4)GlcNAc(b1-2)Man
# In short: as §1
# [32] = target: Gal(a1-3)Gal(b1-4)GlcNAc(b1-2)Man(a1-3)[Gal(a1-3)Gal(b1-4)GlcNAc(b1-2)Man(a1-6)]Man(b1-4)GlcNAc(b1-4)GlcNAc
# In short: as §1
# [33] = target: Gal(a1-3)Gal(b1-4)GlcNAc(b1-3)GalNAc
# In short: as §1
# [34] = target: Gal(a1-3)Gal(b1-4)GlcNAc(b1-6)GalNAc
# In short: as §1
# [35] = target: Gal(a1-3)Gal(b1-4)[Fuc(a1-3)]GlcNAc
# In short: as §1
# [36] = target: Gal(a1-3)Gal(b1-4)[Fuc(a1-3)]GlcNAc(b1-2)Man(a1-3)[Gal(a1-3)Gal(b1-4)[Fuc(a1-3)]GlcNAc(b1-2)Man(a1-6)]Man(b1-4)GlcNAc(b1-4)GlcNAc
# In short: as §1
# [37] = target: Gal(a1-3)GalNAc
# In short: as §1
# [38] = target: Gal(a1-3)[Gal(a1-4)]Gal(b1-4)GlcNAc
# In short: as §1
# [39] = target: Gal(a1-4)Gal(b1-3)GlcNAc(b1-2)Man(a1-3)[Gal(a1-4)Gal(b1-3)GlcNAc(b1-2)Man(a1-6)]Man(b1-4)GlcNAc(b1-4)GlcNAc
# In short: as §1
# [40] = target: Gal(a1-4)Gal(b1-4)Glc
# In short: as §1
# [41] = target: Gal(a1-4)Gal(b1-4)GlcNAc
# In short: as §1
# [42] = target: Gal(a1-4)Gal(b1-4)GlcNAc(b1-2)Man(a1-3)[Gal(a1-4)Gal(b1-4)GlcNAc(b1-2)Man(a1-6)]Man(b1-4)GlcNAc(b1-4)GlcNAc
# In short: as §1
# [43] = target: Gal(a1-4)Gal(b1-4)GlcNAc(b1-3)Gal(b1-4)Glc
# In short: as §1
# [44] = target: Gal(a1-4)GlcNAc
# In short: as §1
# [45] = target: Gal(a1-6)Glc
# In short: as §1
binder,measurement,setting,value
B1,glycan array binding signal (z-score),[1],-0.539
same,glycan array binding signal (z-score),[2],0.322
same,glycan array binding signal (z-score),[3],0.559
same,glycan array binding signal (z-score),[4],-0.356
same,glycan array binding signal (z-score),[5],-0.433
same,glycan array binding signal (z-score),[6],-0.178
same,glycan array binding signal (z-score),[7],-0.044
same,glycan array binding signal (z-score),[8],0.501
same,glycan array binding signal (z-score),[9],-0.194
same,glycan array binding signal (z-score),[10],0.323
same,glycan array binding signal (z-score),[11],0.076
same,glycan array binding signal (z-score),[12],-0.341
same,glycan array binding signal (z-score),[13],0.426
same,glycan array binding signal (z-score),[14],-0.836
same,glycan array binding signal (z-score),[15],-0.992
same,glycan array binding signal (z-score),[16],-0.157
same,glycan array binding signal (z-score),[17],-0.597
same,glycan array binding signal (z-score),[18],-0.499
same,glycan array binding signal (z-score),[19],-0.442
same,glycan array binding signal (z-score),[20],0.402
same,glycan array binding signal (z-score),[21],0.009
same,glycan array binding signal (z-score),[22],-0.569
same,glycan array binding signal (z-score),[23],-0.745
same,glycan array binding signal (z-score),[24],-1.17
same,glycan array binding signal (z-score),[25],1.74
same,glycan array binding signal (z-score),[26],-0.979
same,glycan array binding signal (z-score),[27],-0.732
same,glycan array binding signal (z-score),[28],1.79
same,glycan array binding signal (z-score),[29],-0.012
same,glycan array binding signal (z-score),[30],1.21
same,glycan array binding signal (z-score),[31],-0.596
same,glycan array binding signal (z-score),[32],-0.416
same,glycan array binding signal (z-score),[33],0.099
same,glycan array binding signal (z-score),[34],0.313
same,glycan array binding signal (z-score),[35],0.861
same,glycan array binding signal (z-score),[36],-0.315
same,glycan array binding signal (z-score),[37],-0.777
same,glycan array binding signal (z-score),[38],0.258
same,glycan array binding signal (z-score),[39],0.113
same,glycan array binding signal (z-score),[40],0.717
same,glycan array binding signal (z-score),[41],-0.183
same,glycan array binding signal (z-score),[42],1.84
same,glycan array binding signal (z-score),[43],-1.38
same,glycan array binding signal (z-score),[44],-0.528
same,glycan array binding signal (z-score),[45],-0.842

# In another format: results already given
binder	measurement	setting	value
B1	glycan array binding signal (z-score)	[15]	-0.992
same	glycan array binding signal (z-score)	[18]	-0.499
same	glycan array binding signal (z-score)	[25]	1.74
same	glycan array binding signal (z-score)	[43]	-1.38
